# These are yes or no findings as the source states them, for the method shown. Binding seen in cells or lysates may run through a third protein. Some entries that bind do so weakly or less than the wild type. For some of these results: Sequences can lack the tags named with a protein.
# Chains of the proteins cited; added tags and fusions are not shown. Residues count along the entry.
# GST-N-terminal SH2 domain of PI3KR1 (residues 327-437) (P27986, residues 327-437): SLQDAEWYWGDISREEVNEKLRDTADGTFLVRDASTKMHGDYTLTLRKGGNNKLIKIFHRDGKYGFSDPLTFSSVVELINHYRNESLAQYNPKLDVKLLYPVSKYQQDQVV
# GST-C-terminal SH2 domain of PI3KR1 (residues 617-724) (P27986, residues 617-724): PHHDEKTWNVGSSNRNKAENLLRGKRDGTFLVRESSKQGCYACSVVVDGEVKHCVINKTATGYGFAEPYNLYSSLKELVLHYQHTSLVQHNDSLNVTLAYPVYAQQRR
# UniProt P62993, residues 57-157: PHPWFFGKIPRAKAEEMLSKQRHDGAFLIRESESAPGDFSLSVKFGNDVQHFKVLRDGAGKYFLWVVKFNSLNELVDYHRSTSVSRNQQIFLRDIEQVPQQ
# UniProt P00519, residues 121-225: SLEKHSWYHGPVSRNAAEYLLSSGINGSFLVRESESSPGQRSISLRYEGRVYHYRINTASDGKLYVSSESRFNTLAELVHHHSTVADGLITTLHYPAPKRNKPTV
# UniProt P06241, residues 143-255: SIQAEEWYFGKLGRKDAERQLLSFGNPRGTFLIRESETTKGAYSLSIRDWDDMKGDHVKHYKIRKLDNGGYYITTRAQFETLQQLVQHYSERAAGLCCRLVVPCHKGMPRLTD
# UniProt Q15811, residues 1-1220: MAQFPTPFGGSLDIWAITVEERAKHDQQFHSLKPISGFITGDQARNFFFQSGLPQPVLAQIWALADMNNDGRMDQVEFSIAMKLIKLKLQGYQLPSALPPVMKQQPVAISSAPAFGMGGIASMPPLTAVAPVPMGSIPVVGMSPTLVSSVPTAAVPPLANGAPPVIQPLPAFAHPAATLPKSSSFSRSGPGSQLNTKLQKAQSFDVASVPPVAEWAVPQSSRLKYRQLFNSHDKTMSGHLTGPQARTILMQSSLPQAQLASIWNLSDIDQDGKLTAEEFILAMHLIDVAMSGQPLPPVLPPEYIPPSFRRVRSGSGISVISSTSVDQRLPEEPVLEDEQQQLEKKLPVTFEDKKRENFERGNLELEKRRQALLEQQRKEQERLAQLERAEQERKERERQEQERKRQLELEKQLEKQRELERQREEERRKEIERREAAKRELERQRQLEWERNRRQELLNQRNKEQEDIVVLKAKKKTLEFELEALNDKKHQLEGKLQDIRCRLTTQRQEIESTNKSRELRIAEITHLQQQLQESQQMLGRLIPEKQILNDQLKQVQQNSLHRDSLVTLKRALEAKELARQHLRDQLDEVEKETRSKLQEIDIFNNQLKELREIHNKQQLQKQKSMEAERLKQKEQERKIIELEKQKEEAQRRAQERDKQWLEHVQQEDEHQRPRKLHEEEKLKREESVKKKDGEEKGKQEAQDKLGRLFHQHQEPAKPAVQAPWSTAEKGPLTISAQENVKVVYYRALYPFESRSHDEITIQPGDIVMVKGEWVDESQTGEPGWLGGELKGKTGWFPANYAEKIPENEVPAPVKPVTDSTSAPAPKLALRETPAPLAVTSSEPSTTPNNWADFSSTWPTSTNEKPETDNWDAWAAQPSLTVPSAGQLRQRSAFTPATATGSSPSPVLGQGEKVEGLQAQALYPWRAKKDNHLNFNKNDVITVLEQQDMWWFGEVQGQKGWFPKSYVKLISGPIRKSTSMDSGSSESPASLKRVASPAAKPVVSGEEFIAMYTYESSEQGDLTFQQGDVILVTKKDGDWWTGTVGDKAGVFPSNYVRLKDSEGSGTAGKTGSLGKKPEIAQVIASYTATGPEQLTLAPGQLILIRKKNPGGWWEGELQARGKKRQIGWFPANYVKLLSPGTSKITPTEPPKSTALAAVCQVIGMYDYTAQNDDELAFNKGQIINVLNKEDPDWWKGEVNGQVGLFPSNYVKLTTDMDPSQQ
# T1: GST-SH2 domain of Crk (residues 5-127) (UniProt P46108)
# T1 sequence: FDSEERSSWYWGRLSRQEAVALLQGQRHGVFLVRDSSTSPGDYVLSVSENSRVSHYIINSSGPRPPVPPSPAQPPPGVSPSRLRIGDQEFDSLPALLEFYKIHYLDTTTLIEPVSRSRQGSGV
# T2: GST-SH2 domain of Itk (residues 246-363) (UniProt Q08881)
# T2 sequence: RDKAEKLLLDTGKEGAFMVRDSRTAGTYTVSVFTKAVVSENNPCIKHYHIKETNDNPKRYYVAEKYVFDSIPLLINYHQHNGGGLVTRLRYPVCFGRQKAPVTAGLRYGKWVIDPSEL
# T3: GST-SH2 domains of PLCg1 (residues 542-766) (UniProt P19174)
# T3 sequence: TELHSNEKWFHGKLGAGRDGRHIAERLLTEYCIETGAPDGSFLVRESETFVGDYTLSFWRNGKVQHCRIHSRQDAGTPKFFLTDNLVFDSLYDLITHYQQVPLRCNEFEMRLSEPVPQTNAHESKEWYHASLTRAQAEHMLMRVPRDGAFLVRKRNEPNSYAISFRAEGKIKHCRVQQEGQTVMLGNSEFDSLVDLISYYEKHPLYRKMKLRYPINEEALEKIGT
# T4: GST-fused SH3A domain of ITSN2 (residues 749-826) (human) (UniProt Q9NZM3)
# T4 sequence: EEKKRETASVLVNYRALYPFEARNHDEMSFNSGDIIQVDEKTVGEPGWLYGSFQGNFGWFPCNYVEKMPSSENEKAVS
# T5: GST-fused SH3B domain of ITSN2 (residues 891-964) (human) (UniProt Q9NZM3)
# T5 sequence: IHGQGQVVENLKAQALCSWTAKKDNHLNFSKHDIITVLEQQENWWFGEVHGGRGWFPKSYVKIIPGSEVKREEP
# T6: GST-fused SH3D domain of ITSN2 (residues 1044-1127) (human) (UniProt Q9NZM3)
# T6 sequence: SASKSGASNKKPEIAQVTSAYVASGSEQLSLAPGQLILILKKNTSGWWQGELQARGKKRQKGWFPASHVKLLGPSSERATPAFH
# Experiments:
# [1] = target: T1, GST-SH2 domain of Crk (residues 5-127); test: pull-down; GST-SH2 domains on glutathione beads incubated with lysate of HeLa cells starved overnight and stimulated with 20 ng/ml EGF; Western blot; only the target purified
# [2] = target: GST-N-terminal SH2 domain of PI3KR1 (residues 327-437) (UniProt P27986); test: as above
# [3] = target: GST-SH2 domain of Grb2 (residues 57-157) (UniProt P62993); test: as above
# [4] = target: T2, GST-SH2 domain of Itk (residues 246-363); test: as above
# [5] = target: GST-SH2 domain of Fgr (residues 136-251) (UniProt P09769); test: as above
# [6] = target: GST-C-terminal SH2 domain of PI3KR1 (residues 617-724) (UniProt P27986); test: as above
# [7] = target: T3, GST-SH2 domains of PLCg1 (residues 542-766); test: as above
# [8] = target: GST-SH2 domain of Abl1 (residues 140-244) (UniProt P00519); test: as above
# [9] = target: GST-SH2 domain of Fyn (residues 143-255) (UniProt P06241); test: as above
# [10] = target: T4, GST-fused SH3A domain of ITSN2 (residues 749-826) (human); test: pull-down; GST-SH3 domains (5-20 ug) on glutathione beads incubated 2 h at 4°C with lysate of HEK293 cells expressing the tagged protein; 20 mM Tris-HCl pH 7.5, 0.5% NP40, 150 mM NaCl, 10% glycerol, 1 mM Na3VO4; immunoblot with antibodies against tags; only the target purified
# [11] = target: T5, GST-fused SH3B domain of ITSN2 (residues 891-964) (human); test: as above
# [12] = target: T6, GST-fused SH3D domain of ITSN2 (residues 1044-1127) (human); test: as above
Molecule,binding [1],binding [2],binding [3],binding [4],binding [5],binding [6],binding [7],binding [8],binding [9],binding [10],binding [11],binding [12]
"intersectin 1 short isoform (ITSN1-S), endogenous in HeLa cells (from UniProt Q15811-2 1-1220)",no binding,no binding,no binding,no binding,no binding,no binding,no binding,no binding,no binding,,,
"Omni-CdGAP central domain (residues 174-683) (domain or fragment, UniProt Q2M1Z3 174-683) WAPNLLRSKEIEATGCNGDAAFLAVRVQQVVIEFILNHVDQIFNNGAPGSLENDENRPIMKSLTLPALSLPMKLVSLEEAQARSLATNHPARKERRENSLPEIVPPMGTLFHTVLELPDNKRKLSSKSKKWKSIFNLGRSGSDSKSKLSRNGSVFVRGQRLSVEKATIRPAKSMDSLCSVPVEGKETKGNFNRTVTTGGFFIPATKMHSTGTGSSCDLTKQEGEWGQEGMPPGAEGGFDVSSDRSHLQGAQARPPPEQLKVFRPVEDPESEQTAPKMLGMFYTSNDSPSKSVFTSSLFQMEPSPRNQRKALNISEPFAVSVPLRVSAVISTNSTPCRTPPKELQSLSSLEEFSFHGSESGGWPEEEKPLGAETSAASVPKKAGLEDAKAVPEAPGTVECSKGLSQEPGAHLEEKKTPESSLSSQHLNELEKRPNPEKVVEEGREAGEMESSTLQESPRARAEAVLLHEMDEDDLANALIWPEIQQELKIIESEEELSSLPPPALKTSPIQ",,,,,,,,,,binds,binds,binds
"Flag-Numb (protein, UniProt P49757 1-651) MNKLRQSFRRKKDVYVPEASRPHQWQTDEEGVRTGKCSFPVKYLGHVEVDESRGMHICEDAVKRLKAERKFFKGFFGKTGKKAVKAVLWVSADGLRVVDEKTKDLIVDQTIEKVSFCAPDRNFDRAFSYICRDGTTRRWICHCFMAVKDTGERLSHAVGCAFAACLERKQKREKECGVTATFDASRTTFTREGSFRVTTATEQAEREEIMKQMQDAKKAETDKIVVGSSVAPGNTAPSPSSPTSPTSDATTSLEMNNPHAIPRRHAPIEQLARQGSFRGFPALSQKMSPFKRQLSLRINELPSTMQRKTDFPIKNAVPEVEGEAESISSLCSQITNAFSTPEDPFSSAPMTKPVTVVAPQSPTFQANGTDSAFHVLAKPAHTALAPVAMPVRETNPWAHAPDAANKEIAATCSGTEWGQSSGAASPGLFQAGHRRTPSEADRWLEEVSKSVRAQQPQASAAPLQPVLQPPPPTAISQPASPFQGNAFLTSQPVPVGVVPALQPAFVPAQSYPVANGMPYPAPNVPVVGITPSQMVANVFGTAGHPQAAHPHQSPSLVRQQTFPHYEASSATTSPFFKPPAQHLNGSAAFNGVDDGRLASADRHTEVPTGTCPVDPFEAQWAALENKSKQRTNPSPTNPFSSDLQKTFEIEL",,,,,,,,,,,,binds

# — PMC3723668
